Measurements reported in paper PMC3972672.
These are yes or no findings as the source states them, for the method shown. In cells and extracts the contact can be indirect.

By UniProt entry, the sequences of proteins in these tests, tags left out. Residues count along the entry.
UniProt P25445, residues 26-335: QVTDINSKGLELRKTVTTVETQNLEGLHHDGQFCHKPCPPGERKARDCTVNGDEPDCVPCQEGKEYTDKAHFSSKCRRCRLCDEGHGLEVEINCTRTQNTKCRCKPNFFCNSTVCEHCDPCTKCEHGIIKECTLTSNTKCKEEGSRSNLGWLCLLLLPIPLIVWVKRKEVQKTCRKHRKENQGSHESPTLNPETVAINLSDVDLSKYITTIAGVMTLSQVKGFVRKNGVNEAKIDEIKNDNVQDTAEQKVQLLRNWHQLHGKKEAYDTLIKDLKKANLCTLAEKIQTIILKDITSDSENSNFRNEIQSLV
UniProt Q14790: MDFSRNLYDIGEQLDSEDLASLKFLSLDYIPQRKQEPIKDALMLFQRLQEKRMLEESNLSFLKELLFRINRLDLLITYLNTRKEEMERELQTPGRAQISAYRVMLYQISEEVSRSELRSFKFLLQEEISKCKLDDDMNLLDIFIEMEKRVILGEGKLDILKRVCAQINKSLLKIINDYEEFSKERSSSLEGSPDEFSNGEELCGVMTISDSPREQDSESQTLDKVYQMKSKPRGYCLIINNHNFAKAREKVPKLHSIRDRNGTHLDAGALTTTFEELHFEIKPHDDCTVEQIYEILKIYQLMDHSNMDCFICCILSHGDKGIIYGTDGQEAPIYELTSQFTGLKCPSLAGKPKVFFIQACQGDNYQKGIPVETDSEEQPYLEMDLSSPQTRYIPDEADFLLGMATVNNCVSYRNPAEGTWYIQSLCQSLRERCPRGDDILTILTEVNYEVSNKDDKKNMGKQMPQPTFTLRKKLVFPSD
UniProt Q13158: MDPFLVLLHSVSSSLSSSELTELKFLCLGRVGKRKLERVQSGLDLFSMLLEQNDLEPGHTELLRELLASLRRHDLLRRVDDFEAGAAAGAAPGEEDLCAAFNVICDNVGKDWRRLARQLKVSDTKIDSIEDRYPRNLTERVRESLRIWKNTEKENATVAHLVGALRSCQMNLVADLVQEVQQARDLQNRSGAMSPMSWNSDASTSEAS

Target: CD95 (Fas/APO-1) (human (endogenous in SKW6.4)) (UniProt P25445)
Assay: condition: only cells left untreated (without LZ-CD95L); co-IP; as a1 but SKW6.4 cells left untreated (no LZ-CD95L); Western blot

Substance: procaspase-8 (from UniProt Q14790 1-479) (enzyme)
- binding: no binding

Substance: FADD (from UniProt Q13158 1-208)
- binding: no binding
